Some of the results follow.

Protein sequences, listed by entry. Tags and fused reporters are not part of them. Lines headed by an entry give the natural chain unless they say otherwise; changes in a name come on top.
UniProt Q14160: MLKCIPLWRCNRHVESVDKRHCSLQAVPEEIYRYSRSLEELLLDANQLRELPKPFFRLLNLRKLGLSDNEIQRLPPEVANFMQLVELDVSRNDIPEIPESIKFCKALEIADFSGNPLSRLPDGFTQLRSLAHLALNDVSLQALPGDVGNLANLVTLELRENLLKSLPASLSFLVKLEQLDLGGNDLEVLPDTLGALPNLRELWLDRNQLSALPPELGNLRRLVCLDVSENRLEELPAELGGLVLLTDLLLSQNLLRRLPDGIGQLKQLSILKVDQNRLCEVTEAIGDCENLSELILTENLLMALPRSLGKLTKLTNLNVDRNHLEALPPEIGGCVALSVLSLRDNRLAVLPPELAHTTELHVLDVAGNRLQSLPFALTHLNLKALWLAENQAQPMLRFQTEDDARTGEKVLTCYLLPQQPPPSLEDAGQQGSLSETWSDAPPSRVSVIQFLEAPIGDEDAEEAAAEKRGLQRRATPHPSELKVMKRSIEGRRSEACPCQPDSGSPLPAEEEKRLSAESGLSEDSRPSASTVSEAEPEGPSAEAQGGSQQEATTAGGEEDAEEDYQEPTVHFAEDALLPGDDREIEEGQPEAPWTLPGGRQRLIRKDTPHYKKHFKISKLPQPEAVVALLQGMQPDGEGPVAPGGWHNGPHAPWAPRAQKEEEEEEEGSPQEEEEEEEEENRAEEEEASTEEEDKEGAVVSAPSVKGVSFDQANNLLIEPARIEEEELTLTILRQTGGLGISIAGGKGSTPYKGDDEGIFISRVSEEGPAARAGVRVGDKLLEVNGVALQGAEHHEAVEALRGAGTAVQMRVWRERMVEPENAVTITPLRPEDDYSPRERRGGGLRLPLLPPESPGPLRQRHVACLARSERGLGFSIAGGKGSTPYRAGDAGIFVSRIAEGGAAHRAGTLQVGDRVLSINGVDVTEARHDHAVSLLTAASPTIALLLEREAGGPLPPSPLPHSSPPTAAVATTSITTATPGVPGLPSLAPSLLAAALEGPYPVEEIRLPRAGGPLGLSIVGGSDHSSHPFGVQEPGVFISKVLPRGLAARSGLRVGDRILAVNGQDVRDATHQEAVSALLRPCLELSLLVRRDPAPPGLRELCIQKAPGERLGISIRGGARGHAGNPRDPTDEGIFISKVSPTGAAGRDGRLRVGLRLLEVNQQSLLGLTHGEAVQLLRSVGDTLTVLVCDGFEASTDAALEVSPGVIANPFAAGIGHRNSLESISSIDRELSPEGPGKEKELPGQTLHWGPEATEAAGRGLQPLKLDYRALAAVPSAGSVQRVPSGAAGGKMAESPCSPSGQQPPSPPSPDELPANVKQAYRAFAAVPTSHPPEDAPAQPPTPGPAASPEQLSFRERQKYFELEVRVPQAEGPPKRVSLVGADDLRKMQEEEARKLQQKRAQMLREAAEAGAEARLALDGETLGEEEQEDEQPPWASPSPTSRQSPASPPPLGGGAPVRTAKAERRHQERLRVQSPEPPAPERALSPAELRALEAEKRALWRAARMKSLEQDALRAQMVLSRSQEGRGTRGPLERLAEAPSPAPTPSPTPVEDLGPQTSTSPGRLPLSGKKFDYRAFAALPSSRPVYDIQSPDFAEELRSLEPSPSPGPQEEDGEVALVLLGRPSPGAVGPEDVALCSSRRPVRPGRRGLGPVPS
UniProt Q9NPR2: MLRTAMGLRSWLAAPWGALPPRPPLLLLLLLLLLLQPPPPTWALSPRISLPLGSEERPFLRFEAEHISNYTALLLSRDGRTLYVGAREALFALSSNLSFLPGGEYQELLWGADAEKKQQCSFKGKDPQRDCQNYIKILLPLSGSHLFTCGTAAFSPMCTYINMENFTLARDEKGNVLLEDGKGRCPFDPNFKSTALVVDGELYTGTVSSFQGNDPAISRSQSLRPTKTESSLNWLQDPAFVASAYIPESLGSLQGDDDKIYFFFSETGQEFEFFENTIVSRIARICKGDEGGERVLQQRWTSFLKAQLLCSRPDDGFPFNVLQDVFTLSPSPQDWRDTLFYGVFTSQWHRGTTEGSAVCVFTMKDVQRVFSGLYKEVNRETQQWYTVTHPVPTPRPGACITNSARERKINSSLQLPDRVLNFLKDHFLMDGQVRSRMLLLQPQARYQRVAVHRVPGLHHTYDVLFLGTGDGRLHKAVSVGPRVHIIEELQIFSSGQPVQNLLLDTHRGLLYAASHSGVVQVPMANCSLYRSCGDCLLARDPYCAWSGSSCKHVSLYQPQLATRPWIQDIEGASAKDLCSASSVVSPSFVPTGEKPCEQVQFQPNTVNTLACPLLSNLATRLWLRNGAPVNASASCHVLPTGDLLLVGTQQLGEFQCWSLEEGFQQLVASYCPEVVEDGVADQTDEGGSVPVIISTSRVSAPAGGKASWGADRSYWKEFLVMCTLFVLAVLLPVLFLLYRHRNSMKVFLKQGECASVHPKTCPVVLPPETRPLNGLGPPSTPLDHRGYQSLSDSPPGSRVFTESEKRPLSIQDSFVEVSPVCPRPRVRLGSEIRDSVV
UniProt P61619, whole entry, looked up: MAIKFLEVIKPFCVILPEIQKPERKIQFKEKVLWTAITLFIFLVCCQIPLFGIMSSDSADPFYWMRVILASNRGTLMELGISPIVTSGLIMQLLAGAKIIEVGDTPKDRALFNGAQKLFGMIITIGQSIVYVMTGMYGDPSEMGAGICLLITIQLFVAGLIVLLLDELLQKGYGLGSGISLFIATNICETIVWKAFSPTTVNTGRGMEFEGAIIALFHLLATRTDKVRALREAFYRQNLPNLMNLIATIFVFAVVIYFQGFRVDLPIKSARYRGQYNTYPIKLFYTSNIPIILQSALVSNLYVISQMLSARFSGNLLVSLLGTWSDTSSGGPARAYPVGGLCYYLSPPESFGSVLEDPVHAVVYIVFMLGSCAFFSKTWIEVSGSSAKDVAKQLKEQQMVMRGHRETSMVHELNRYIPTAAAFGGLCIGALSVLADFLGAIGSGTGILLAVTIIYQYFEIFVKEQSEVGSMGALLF
UniProt Q9UHR5: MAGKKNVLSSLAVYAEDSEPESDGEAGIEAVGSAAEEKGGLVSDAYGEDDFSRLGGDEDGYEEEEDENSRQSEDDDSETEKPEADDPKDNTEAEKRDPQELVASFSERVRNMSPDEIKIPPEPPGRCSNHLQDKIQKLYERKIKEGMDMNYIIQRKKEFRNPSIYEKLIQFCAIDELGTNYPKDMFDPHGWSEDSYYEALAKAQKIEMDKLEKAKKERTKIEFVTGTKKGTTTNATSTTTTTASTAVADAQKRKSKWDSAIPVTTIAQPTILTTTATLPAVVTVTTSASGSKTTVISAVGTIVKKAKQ
UniProt Q9BW04: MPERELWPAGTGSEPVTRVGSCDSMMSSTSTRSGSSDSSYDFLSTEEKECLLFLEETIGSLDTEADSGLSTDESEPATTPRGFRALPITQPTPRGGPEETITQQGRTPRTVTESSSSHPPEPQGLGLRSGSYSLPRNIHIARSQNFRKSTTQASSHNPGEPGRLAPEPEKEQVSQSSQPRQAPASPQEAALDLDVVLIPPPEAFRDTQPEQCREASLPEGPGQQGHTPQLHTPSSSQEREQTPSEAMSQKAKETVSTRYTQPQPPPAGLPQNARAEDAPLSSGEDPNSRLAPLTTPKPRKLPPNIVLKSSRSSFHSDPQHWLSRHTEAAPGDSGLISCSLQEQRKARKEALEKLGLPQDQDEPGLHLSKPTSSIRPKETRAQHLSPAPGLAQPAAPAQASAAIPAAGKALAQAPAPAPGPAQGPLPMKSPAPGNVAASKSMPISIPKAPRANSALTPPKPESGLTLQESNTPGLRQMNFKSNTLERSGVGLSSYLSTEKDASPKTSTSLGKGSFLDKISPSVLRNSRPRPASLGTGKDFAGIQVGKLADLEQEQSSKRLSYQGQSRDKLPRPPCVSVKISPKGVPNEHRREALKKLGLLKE
UniProt Q9NSI8: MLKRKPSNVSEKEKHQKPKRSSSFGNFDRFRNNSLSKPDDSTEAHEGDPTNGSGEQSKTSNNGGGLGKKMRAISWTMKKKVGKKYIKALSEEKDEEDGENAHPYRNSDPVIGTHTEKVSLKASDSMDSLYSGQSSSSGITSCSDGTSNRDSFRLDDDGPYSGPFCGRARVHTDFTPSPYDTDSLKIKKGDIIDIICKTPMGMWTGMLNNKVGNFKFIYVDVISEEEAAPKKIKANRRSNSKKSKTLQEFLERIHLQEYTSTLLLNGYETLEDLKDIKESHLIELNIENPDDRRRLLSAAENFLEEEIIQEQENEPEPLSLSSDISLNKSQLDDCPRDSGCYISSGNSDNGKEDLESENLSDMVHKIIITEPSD
UniProt O60613, whole entry, looked up: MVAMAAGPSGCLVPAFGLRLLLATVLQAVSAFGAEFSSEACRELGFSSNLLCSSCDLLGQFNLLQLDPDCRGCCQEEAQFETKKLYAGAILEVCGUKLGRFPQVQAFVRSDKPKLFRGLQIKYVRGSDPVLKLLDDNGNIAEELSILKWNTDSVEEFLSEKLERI
UniProt Q6UVJ0: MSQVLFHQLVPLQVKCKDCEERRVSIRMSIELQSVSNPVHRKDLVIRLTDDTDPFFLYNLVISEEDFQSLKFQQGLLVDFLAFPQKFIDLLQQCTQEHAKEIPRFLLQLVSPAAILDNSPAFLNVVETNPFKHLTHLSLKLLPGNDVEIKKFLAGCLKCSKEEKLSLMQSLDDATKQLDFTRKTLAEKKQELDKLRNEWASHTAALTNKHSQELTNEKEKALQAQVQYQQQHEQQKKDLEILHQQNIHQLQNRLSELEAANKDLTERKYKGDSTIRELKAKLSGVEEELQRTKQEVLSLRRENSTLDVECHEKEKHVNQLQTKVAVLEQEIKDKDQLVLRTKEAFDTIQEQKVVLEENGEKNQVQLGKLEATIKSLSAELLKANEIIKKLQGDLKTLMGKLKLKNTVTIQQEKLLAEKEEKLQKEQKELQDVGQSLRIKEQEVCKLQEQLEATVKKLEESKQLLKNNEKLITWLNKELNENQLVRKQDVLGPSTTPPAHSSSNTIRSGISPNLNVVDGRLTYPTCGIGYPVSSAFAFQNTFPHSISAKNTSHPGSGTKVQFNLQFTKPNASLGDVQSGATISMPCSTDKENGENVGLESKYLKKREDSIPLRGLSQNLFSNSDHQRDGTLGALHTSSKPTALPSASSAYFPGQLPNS
UniProt Q96HI0: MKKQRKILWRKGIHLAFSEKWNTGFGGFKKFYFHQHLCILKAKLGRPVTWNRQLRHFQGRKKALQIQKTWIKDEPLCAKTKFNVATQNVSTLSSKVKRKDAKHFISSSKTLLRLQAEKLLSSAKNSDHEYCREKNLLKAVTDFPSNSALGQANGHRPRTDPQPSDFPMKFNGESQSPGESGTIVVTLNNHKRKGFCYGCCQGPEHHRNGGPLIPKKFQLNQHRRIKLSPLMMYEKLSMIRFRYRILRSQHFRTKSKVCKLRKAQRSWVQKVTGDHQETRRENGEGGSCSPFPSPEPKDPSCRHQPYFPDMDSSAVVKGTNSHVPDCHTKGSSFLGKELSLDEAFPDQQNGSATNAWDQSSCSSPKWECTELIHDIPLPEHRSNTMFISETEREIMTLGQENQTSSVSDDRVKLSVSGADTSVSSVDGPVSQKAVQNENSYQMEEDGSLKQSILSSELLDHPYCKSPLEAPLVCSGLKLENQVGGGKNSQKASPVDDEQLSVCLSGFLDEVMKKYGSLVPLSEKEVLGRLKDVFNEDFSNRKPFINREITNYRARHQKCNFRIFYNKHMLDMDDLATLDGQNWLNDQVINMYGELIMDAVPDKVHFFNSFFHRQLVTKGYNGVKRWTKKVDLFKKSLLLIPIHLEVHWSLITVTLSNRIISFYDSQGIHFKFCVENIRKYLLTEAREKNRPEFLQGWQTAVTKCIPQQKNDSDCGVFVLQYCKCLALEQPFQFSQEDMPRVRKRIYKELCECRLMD
UniProt Q9UQR0: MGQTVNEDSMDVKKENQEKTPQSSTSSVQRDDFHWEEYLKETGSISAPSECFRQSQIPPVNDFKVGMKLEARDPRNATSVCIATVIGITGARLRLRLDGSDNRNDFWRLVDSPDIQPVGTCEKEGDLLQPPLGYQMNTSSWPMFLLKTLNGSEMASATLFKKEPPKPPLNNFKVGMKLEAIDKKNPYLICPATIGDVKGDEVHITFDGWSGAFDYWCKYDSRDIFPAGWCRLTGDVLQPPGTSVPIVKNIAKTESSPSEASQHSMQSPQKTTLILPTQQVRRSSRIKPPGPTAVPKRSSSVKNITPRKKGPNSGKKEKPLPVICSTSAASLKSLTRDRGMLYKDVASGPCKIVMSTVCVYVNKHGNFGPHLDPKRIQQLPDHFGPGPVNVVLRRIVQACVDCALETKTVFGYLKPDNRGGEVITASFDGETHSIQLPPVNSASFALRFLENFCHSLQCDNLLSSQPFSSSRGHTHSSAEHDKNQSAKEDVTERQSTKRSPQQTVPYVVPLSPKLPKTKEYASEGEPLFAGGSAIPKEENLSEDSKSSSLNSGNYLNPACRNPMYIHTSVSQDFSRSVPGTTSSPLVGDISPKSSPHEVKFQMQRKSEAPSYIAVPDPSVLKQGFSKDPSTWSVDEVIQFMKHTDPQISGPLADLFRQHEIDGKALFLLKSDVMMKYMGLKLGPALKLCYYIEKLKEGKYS

Compound in the experiment: C#Cc1cccc(Nc2ncnc3cc(OCCOC)c(OCCOC)cc23)c1 [erlotinib]
Briefly: log2 fold change, soluble protein after heating vs DMSO (PISA); higher = thermal stabilisation; K562 lysate, 10 uM; active = over 0.2 and 3.5 SD of the protein, either way, in both replicates (recomputed). The method in brief:
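Dounce homogenisation of K562 pellets in PBS pH 7.4 with 1 mM MgCl2 produced a crude extract, used at 1 mg/mL protein. Exposure to 10 μM compound lasted 30 min, and aliquots were then heated for 3 min across 48°C-58°C, pooled and brought to 0.5% NP-40 at 4°C. The supernatant after 21,000xg for 90 min was quantified by TMTpro 16plex LC-MS/MS with channel sums equalised. Duplicate values are given as log-two fold change in thermal stability relative to solvent controls.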
As to SCRIB (UniProt Q14160), the log2 fold change was inactive: 0.013.

SEC23A (UniProt Q15436): the log2 fold change was inactive: 0.041.

Turning to SEPTIN9 (UniProt Q9UHD8), the log2 fold change was inactive: -0.005.

For the target SEMA4B (UniProt Q9NPR2), the log2 fold change was inactive: 0.07.

Take SDF4 (UniProt Q9BRK5): the log2 fold change was inactive: -0.018.

Turning to SELENOS (UniProt Q9BQE4), the log2 fold change was inactive: 0.

In the case of SCFD1 (UniProt Q8WVM8), the log2 fold change is inactive: 0.002.

Take SEC24D isoform 2 (UniProt O94855): the log2 fold change was inactive: 0.016.

Take SELENBP1 isoform 4 (UniProt Q13228): the log2 fold change is inactive: -0.015.

With SEC61A1 (UniProt P61619), the log2 fold change is inactive: -0.009.

On to SEC24C (UniProt P53992), for which the log2 fold change was inactive: 0.04.

SAP30BP (UniProt Q9UHR5): the log2 fold change was inactive: -0.011.

SCRN3 (UniProt Q0VDG4): the log2 fold change is inactive: -0.017.

As for SDSL (UniProt Q96GA7), the log2 fold change was inactive: -0.014.

On to SEC63 (UniProt Q9UGP8), for which the log2 fold change was inactive: -0.017.

As to SARG (UniProt Q9BW04), the log2 fold change is inactive: 0.017.

Consider SAAL1 (UniProt Q96ER3), for which the log2 fold change is inactive: 0.016.

In the case of SAR1B (UniProt Q9Y6B6), the log2 fold change was inactive: -0.143.

On to SAMSN1 (UniProt Q9NSI8), for which the log2 fold change was inactive: -0.018.

As for SDCCAG8 (UniProt Q86SQ7), the log2 fold change was inactive: -0.003.

For the target SCYL1 (UniProt Q96KG9), the log2 fold change is inactive: -0.003.

SDAD1 (UniProt Q9NVU7): the log2 fold change is inactive: -0.035.

In the case of SEPTIN2 isoform 2 (UniProt Q15019), the log2 fold change was inactive: 0.022.

SCAMP3 isoform 2 (UniProt O14828): the log2 fold change was inactive: -0.108.

For the target SELENOF (UniProt O60613), the log2 fold change was inactive: 0.037.

On to SASS6 (UniProt Q6UVJ0), for which the log2 fold change is inactive: 0.024.

Regarding SCFD2 (UniProt Q8WU76), the log2 fold change was inactive: 0.033.

With SEPTIN11 isoform 2 (UniProt Q9NVA2), the log2 fold change is inactive: 0.001.

For SCLT1 (UniProt Q96NL6), the log2 fold change is inactive: 0.008.

For SCARB1 isoform 2 (UniProt Q8WTV0), the log2 fold change is inactive: 0.008.

As for SENP5 (UniProt Q96HI0), the log2 fold change was inactive: -0.001.

As to SDHB (UniProt P21912), the log2 fold change is inactive: 0.009.

For the target SCML2 (UniProt Q9UQR0), the log2 fold change is inactive: 0.021.

The values above are taken from the supplement of paper PMC10849652.
